Measured values published in PubChem BioAssay AID2551 (National Center for Advancing Translational Sciences (NCATS), 2010).
The whole screen tested about 310,000 compounds, of which about 17,000 (5.5%) were called active. Inconclusive means that the source gave no clear call. Such entries were picked first, then a sample of the others. The call rests on the fitted dose curve; in most records, active means well fitted inhibition curve with a large enough effect; inconclusive means small, poorly fitted or top-dose-only effect, or effect the other way; inactive means no such curve, though single readings can be large or run the other way. A potency beside an inconclusive call is a rough fit, not a confirmed value.

Sequences of proteins named here, by UniProt entry; tags and fusion partners are left off. A change or cut given only in a name is not applied to a line headed by its entry.
UniProt P51450: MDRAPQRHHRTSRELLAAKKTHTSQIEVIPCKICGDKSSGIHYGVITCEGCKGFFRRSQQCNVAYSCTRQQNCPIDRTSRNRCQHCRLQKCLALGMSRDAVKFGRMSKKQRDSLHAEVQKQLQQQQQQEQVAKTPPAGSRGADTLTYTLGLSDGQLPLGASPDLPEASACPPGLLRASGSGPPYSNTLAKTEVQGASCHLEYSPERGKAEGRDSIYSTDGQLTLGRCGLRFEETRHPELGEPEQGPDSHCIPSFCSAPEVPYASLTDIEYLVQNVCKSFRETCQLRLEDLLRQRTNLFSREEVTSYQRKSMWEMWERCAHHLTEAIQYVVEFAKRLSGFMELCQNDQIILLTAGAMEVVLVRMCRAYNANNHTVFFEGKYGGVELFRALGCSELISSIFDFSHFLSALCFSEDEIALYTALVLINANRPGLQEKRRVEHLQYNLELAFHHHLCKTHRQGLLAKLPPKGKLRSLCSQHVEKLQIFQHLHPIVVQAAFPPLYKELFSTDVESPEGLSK

Biological target: Nuclear receptor ROR-gamma (Mus musculus) (UniProt P51450)
Assay: qHTS for inhibitors of ROR gamma transcriptional activity; further: nearly all actives have a fitted effect of over 60% in size
Settings: Drosophila S2 Gal4-RORgamma UAS-luciferase reporter, 20 h; activity change, negative = inhibition: at 53.6 µM (top of the series)
Outline: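 ROR gamma transcriptional activity was tracked as Gal4-UAS luciferase output in stably transfected Drosophila Schneider cells, with compound added 1 hr before 700 uM copper sulfate induction and a 20 hr ambient-temperature incubation.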
On the % scale 0 is the no-effect control and ±100 the full control effect; potency means the concentration at half of the fitted maximal effect.

Q: For `CC(C)(C)N1CC(C(=O)Nc2ccc(C#N)cc2)CC1=O` (configuration not stated), which “activity change, negative = inhibition” value is on record?
A: The value was inactive: -19.4%.

Q: Which Potency does the source give for `COc1ccc(Br)cc1CNC(=O)C1CCN(S(=O)(=O)N2CCC(C)CC2)CC1` here?
A: The Potency was inconclusive: 31.6 µM [activator, single point].

Q: How did the “activity change, negative = inhibition” value turn out when `Cc1cccc(N2CCN(S(=O)(=O)c3c(C)nc4scc(C)n4c3=O)CC2)c1C` was run?
A: Its value is inactive: 35.2%.

Q: For `O=C1CN(c2ccccc2)C(=S)N1C(=O)c1ccc(Br)cc1`, which Potency is on record?
A: The Potency was inconclusive: 17.8 µM [inhibitor, single point].

Q: For `c1ccc(Cn2ncc3c(N4CCN(C(c5ccccc5)c5ccccc5)CC4)ncnc32)cc1`, which “activity change, negative = inhibition” value is on record?
A: Its value is inactive: 15.2%.

Q: With `c1ccc2[nH]c(SCC3CCCCO3)nc2c1` (configuration not stated) as the molecule, how does the “activity change, negative = inhibition” value read?
A: The value was inactive: -41.3%.

Q: How did the Potency turn out when `Cc1ccccc1OCCc1c(C)[nH]c(=S)[nH]c1=O` was run?
A: Its Potency is inconclusive: 20 µM [inhibitor, single point].

Q: `Cc1ccc(C(=O)c2c[nH]cc2-c2ccccc2)cc1` was tested. Which Potency did it give?
A: Its Potency is inconclusive: 31.6 µM [inhibitor, single point].

Q: Which Potency does the source give for `Cc1cc(N2CCCC2)nc2ccc(NC(=S)NCCCOC(C)C)cc12` here?
A: Its Potency is active: 11.2 µM.

Q: `O=C(c1ccco1)N1CCN(C(c2ccccc2)c2nnnn2Cc2cccs2)CC1` (configuration not stated) was tested. Which Potency did it give?
A: Its Potency is inconclusive: 25.1 µM [activator, single point].

Q: `CCOC(=O)c1cnc2ccc(C(=O)OC)cc2c1NCCCN1CCOCC1` was tested. Which “activity change, negative = inhibition” value did it give?
A: The value was inactive: 32.1%.

Q: For `N#Cc1sc(NCc2cccc(Cl)c2)nc1Cl`, which Potency is on record?
A: The Potency was inconclusive: 15.8 µM [activator, single point].

Q: Which Potency does the source give for `O=C(NC(=S)N(Cc1ccccc1)c1ccccn1)C1CCCCC1` here?
A: The Potency was inconclusive: 15.8 µM [inhibitor, single point].

Q: How did the “activity change, negative = inhibition” value turn out when `CCOC(=O)n1c(=O)n(Cc2ccccc2C)c2ccccc21` was run?
A: Its value is inactive: 29%.

Q: With `CC(NC(=O)CC(c1ccccc1)c1cc(Cl)ccc1O)c1ccccc1` (configuration not stated) as the molecule, how does the “activity change, negative = inhibition” value read?
A: Its value is inactive: 38.6%.

Q: How did the Potency turn out when `CC(=O)NNC(=S)NC(=O)c1ccccc1` was run?
A: Its Potency is inconclusive: 15.8 µM [inhibitor, single point].

Q: Which Potency does the source give for `COc1ccc(/C=C/C(=O)NC(=S)N2CCSCC2)cc1` here?
A: The Potency was active: 3.55 µM.

Q: With `Cc1ccc(N(C(=O)c2cc3ccccc3oc2=O)C2C=CS(=O)(=O)C2)cc1` (configuration not stated) as the molecule, how does the Potency read?
A: Its Potency is inconclusive: 35.5 µM [inhibitor, single point].

Q: `COC(=O)NCC(c1cccnc1)N1CCN(c2ccccc2F)CC1` (configuration not stated) was tested. Which Potency did it give?
A: The Potency was inconclusive: 0.0794 µM [inhibitor, full curve, poor fit].

Q: With `COc1cc2c(cc1OC)CN(Cc1cc(=O)oc3c(C)c(C)ccc13)CC2` as the molecule, how does the Potency read?
A: The Potency was inconclusive: 35.5 µM [activator, single point].

Q: With `C/C(=N\NC(=O)c1ccccc1O)c1ccc(NC(=O)c2ccccc2)cc1` as the molecule, how does the Potency read?
A: The Potency was inconclusive: 25.1 µM [inhibitor, single point].

Q: For `O=C(Nc1cccc(NC(=O)C2CC3CCCC(C2)C3=O)n1)C1CC2CCCC(C1)C2=O` (configuration not stated), which Potency is on record?
A: The Potency was inconclusive: 12.6 µM [activator, partial curve].

Q: `COC(=O)c1cc(C(=O)c2c(C)cc3ccccn23)cc([N+](=O)[O-])c1` was tested. Which “activity change, negative = inhibition” value did it give?
A: Its value is inactive: 14.5%.

Q: How did the Potency turn out when `CC1(C(=O)NCCc2c[nH]c3ccccc23)C=CC2(CCCCC2)N1C(=O)c1ccccc1` (configuration not stated) was run?
A: The Potency was inconclusive: 15.8 µM [activator, partial curve].

Q: For `O=C(c1ccc2ccccc2c1)C1CCCN(C(=O)CN2C(=O)CSC2=O)C1` (configuration not stated), which Potency is on record?
A: Its Potency is inconclusive: 11.2 µM [activator, single point].

Q: Which Potency does the source give for `Cc1cc(C)c2nc(C)cc(N/N=C/c3ccc(O)cc3)c2c1` here?
A: The Potency was inconclusive: 10 µM [inhibitor, partial curve, poor fit].

Q: Which Potency does the source give for `NC(=O)c1nsc(C(=O)N(Cc2ccco2)C(C(=O)NCc2ccccc2)c2ccc(O)cc2)c1N` (configuration not stated) here?
A: The Potency was inconclusive: 10 µM [activator, partial curve, poor fit].

Q: Which “activity change, negative = inhibition” value does the source give for `COc1cc(Br)cc(CN2CCN(C=O)CC2)c1O` here?
A: The value was inactive: -25.8%.

Q: For `COc1ccc(S(=O)(=O)N=C2C=C(C)C(=O)C(C)=C2)cc1`, which “activity change, negative = inhibition” value is on record?
A: The value was inactive: -9.15%.

Q: For `FC(F)(F)c1cnc(C(c2ccccn2)c2ncn[nH]2)c(Cl)c1` (configuration not stated), which Potency is on record?
A: Its Potency is active: 11.2 µM.

Q: How did the Potency turn out when `O=C(Cn1cncn1)N/N=C/c1cc([N+](=O)[O-])ccc1O` was run?
A: Its Potency is active: 8.91 µM.

Q: For `NC(=S)N/N=C/c1coc2c(ccc3ccccc32)c1=O`, which Potency is on record?
A: The Potency was active: 5.62 µM.

Q: With `COc1ccc(NC(=O)CN2CCN(CC(=O)Nc3ccccc3F)CC2)c(OC)c1` as the molecule, how does the Potency read?
A: Its Potency is inconclusive: 0.0063 µM [inhibitor, full curve, poor fit].

Q: `COc1cccc(CC(=O)NCCCSc2ccccc2)c1` was tested. Which “activity change, negative = inhibition” value did it give?
A: Its value is inactive: 5.41%.

Q: With `COC(=O)[C@H](C)NC(=O)[C@@H](C)CO` as the molecule, how does the activity change, negative = inhibition read?
A: The activity change, negative = inhibition was inactive: -2.55% [at 10 µM].

Q: How did the Potency turn out when `O=C(N/N=C/c1c[nH]c2ccccc12)c1sc2ccccc2c1Cl` was run?
A: Its Potency is inconclusive: 17.8 µM [inhibitor, partial curve, poor fit].

Q: For `COc1ccccc1NC(=O)Nc1sccc1-c1nc2ccccc2s1`, which Potency is on record?
A: The Potency was inconclusive: 10 µM [inhibitor, single point].

Q: For `CC1C/C(=N\NC(N)=S)c2cc(Cl)ccc2S1` (configuration not stated), which Potency is on record?
A: Its Potency is active: 0.631 µM.

Q: `C=CCC(CC(O)COCCC)C(=O)NNC(=S)Nc1ccccc1` (configuration not stated) was tested. Which Potency did it give?
A: The Potency was active: 0.282 µM.

Q: For `O=C1c2ccccc2C(=O)c2c1cccc2N(CCO)CCO`, which Potency is on record?
A: Its Potency is inconclusive: 12.6 µM [inhibitor, single point].

Q: For `CCOc1ccc(NC(=O)CCC(=O)N/N=C/c2ccc([N+](=O)[O-])s2)cc1`, which Potency is on record?
A: Its Potency is inconclusive: 31.6 µM [activator, single point].

Q: How did the Potency turn out when `C=CCn1c(SCC(=O)N2CCc3ccccc3C2)nc2sc(CC)cc2c1=O` was run?
A: The Potency was inconclusive: 20 µM [activator, single point].

Q: With `COc1ccc(C)cc1S(=O)(=O)N1CCCC(C(=O)NCC2CCCO2)C1` (configuration not stated) as the molecule, how does the “activity change, negative = inhibition” value read?
A: The value was inactive: 13.8%.

Q: How did the Potency turn out when `COc1ccc(CNC(=O)N2CCN(c3ccc(F)cc3)CC2)cc1Cl` was run?
A: Its Potency is inconclusive: 12.6 µM [activator, single point].

Q: `COCCN(CCOC)S(=O)(=O)c1ccc(/C(O)=C(\C#N)c2nc3ccccc3[nH]2)cc1` was tested. Which Potency did it give?
A: Its Potency is active: 12.6 µM.

Q: `COCCSc1ccccc1C(=O)NCCCn1ccnc1` was tested. Which Potency did it give?
A: Its Potency is inconclusive: 35.5 µM [inhibitor, single point].

Q: For `Nc1nc(-c2ccc([N+](=O)[O-])cc2)cs1`, which Potency is on record?
A: Its Potency is inconclusive: 17.8 µM [activator, single point].
